From patent US20190309036A1 come the findings set out here.

Sequences of proteins named here, by UniProt entry; tags and fusion partners are left off. A change or cut given only in a name is not applied to a line headed by its entry.
UniProt P20701: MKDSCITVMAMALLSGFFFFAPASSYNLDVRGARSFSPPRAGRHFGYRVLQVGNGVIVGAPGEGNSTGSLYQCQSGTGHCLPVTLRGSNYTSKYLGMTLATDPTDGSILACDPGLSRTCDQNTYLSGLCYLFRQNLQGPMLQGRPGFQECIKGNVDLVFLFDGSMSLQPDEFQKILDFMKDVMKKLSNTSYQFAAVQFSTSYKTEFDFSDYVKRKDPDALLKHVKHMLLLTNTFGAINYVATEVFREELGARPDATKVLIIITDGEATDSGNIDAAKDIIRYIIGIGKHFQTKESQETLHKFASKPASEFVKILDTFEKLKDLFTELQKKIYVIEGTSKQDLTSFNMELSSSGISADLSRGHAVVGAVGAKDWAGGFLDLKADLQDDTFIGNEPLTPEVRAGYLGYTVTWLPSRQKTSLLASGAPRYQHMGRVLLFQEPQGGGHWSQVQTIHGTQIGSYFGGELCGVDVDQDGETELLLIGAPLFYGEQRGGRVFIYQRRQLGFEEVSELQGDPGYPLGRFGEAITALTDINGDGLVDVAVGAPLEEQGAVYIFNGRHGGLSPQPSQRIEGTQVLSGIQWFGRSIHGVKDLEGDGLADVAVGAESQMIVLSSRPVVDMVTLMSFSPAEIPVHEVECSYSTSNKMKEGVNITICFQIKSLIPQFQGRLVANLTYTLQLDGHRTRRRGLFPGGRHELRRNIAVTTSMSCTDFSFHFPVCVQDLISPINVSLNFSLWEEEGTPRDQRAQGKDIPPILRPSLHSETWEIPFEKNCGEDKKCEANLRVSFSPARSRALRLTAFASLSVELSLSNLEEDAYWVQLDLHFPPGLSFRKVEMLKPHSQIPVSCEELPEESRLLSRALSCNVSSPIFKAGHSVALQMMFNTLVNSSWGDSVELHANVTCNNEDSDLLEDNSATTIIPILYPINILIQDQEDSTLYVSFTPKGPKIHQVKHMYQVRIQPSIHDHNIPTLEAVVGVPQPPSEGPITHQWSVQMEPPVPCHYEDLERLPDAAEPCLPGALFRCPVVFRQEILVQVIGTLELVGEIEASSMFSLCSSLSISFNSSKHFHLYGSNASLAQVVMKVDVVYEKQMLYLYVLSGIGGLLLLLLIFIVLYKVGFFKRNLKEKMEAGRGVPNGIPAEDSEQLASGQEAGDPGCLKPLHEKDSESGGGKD
UniProt P05107: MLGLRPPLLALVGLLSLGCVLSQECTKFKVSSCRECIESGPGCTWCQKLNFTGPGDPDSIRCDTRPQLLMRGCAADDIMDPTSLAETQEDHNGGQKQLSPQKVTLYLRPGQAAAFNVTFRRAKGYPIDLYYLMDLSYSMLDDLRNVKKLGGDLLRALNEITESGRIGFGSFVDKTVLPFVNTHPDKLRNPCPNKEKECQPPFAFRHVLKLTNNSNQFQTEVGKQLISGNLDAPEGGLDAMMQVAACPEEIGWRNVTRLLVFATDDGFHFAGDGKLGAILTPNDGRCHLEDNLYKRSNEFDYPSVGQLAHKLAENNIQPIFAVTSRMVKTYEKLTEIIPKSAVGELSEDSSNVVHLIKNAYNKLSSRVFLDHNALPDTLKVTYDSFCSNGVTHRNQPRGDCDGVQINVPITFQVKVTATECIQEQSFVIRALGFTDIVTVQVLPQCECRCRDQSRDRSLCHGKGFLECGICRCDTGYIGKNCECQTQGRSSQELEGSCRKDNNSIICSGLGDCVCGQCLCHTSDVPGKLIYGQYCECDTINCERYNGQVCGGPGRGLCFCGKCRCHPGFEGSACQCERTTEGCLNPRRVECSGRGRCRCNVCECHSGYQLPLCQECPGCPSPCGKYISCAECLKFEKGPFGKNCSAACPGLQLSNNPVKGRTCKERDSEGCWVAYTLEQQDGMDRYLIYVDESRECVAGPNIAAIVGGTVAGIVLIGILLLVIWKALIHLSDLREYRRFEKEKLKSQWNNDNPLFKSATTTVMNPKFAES
UniProt P37802: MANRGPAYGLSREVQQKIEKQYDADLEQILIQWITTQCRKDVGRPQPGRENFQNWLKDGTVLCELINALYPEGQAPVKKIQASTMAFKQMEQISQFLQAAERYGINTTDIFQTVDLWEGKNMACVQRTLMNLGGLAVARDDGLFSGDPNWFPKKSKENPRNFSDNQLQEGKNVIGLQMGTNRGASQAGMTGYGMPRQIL

Assay [1] has as its target T1, LFA-1 (human) (human) (UniProt P20701+P05107). In words: co-immunoprecipitation with TS1/18 (anti-LFA-1) and Western blot. Background: Immunoblotting shows a protein as a band on a membrane.
In assay [2] the target is T1, LFA-1 (human) (human). Nature of the assay: co-immunoprecipitation with TS1/18 (anti-LFA-1) and Western blot; Jurkat T cells and cotransfected HEK293T cells.

No constants are given. Whether binding was seen depends on the method and setting. Binding seen in cells or lysates may run through a third protein. Some results given as binding are weak or reduced against the parent protein; the word gives no strength.

“TAGLN2 (transgelin-2) (from UniProt P37802 1-199)”: the binding result in assay [1] and in assay [2] was “binds” each time.
